Data as given in PMC12663635.
Results are given in words; binding and its absence hold for the method and conditions named. In cells and extracts the contact can be indirect. These calls come from enrichment with a bait or labelling near it, and not all partners need be listed. No binding means not detected with the bait. Sequences can lack the tags named with a protein.

Protein sequences, listed by entry. Tags and fused reporters are not part of them. Lines headed by an entry give the natural chain unless they say otherwise; changes in a name come on top. Residues count along the entry.
UniProt Q9UBS4, residues 23-358: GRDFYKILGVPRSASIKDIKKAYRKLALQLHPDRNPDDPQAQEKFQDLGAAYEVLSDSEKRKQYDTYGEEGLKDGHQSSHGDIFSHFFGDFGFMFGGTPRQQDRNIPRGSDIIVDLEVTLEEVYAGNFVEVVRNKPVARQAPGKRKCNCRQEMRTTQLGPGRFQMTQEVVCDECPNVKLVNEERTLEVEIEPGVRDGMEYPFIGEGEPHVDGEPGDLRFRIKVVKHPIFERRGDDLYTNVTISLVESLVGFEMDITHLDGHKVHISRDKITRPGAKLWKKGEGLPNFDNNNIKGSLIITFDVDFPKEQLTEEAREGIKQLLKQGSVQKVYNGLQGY
UniProt Q9NZJ5, residues 30-1116: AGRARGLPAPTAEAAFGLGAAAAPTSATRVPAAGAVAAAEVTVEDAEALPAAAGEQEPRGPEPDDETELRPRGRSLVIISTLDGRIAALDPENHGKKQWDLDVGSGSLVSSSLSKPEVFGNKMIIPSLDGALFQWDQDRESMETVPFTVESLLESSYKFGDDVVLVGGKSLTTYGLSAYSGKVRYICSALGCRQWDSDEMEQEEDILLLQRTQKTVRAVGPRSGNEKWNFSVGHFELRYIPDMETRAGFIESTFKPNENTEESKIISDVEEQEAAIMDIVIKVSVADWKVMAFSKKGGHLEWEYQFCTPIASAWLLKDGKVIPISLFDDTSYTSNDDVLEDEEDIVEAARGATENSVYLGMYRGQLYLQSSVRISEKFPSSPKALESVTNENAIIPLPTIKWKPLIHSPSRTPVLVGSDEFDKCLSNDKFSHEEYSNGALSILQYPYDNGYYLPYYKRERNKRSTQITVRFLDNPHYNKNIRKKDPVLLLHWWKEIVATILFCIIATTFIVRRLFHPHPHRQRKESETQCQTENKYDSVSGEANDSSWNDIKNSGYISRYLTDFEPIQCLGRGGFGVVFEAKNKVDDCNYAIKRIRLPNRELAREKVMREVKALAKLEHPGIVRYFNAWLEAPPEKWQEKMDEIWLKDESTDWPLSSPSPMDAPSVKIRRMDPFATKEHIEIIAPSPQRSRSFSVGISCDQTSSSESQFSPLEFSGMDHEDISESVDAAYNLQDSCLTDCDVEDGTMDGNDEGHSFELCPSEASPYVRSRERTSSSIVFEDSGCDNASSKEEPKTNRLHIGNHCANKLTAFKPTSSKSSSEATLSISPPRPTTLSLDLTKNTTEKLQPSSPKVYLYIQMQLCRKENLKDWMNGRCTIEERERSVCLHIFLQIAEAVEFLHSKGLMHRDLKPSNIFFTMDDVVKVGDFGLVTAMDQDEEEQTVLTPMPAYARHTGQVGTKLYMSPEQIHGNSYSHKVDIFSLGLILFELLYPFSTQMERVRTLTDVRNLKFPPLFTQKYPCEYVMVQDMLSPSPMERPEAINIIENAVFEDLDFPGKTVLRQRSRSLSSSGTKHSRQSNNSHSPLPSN
UniProt Q14573: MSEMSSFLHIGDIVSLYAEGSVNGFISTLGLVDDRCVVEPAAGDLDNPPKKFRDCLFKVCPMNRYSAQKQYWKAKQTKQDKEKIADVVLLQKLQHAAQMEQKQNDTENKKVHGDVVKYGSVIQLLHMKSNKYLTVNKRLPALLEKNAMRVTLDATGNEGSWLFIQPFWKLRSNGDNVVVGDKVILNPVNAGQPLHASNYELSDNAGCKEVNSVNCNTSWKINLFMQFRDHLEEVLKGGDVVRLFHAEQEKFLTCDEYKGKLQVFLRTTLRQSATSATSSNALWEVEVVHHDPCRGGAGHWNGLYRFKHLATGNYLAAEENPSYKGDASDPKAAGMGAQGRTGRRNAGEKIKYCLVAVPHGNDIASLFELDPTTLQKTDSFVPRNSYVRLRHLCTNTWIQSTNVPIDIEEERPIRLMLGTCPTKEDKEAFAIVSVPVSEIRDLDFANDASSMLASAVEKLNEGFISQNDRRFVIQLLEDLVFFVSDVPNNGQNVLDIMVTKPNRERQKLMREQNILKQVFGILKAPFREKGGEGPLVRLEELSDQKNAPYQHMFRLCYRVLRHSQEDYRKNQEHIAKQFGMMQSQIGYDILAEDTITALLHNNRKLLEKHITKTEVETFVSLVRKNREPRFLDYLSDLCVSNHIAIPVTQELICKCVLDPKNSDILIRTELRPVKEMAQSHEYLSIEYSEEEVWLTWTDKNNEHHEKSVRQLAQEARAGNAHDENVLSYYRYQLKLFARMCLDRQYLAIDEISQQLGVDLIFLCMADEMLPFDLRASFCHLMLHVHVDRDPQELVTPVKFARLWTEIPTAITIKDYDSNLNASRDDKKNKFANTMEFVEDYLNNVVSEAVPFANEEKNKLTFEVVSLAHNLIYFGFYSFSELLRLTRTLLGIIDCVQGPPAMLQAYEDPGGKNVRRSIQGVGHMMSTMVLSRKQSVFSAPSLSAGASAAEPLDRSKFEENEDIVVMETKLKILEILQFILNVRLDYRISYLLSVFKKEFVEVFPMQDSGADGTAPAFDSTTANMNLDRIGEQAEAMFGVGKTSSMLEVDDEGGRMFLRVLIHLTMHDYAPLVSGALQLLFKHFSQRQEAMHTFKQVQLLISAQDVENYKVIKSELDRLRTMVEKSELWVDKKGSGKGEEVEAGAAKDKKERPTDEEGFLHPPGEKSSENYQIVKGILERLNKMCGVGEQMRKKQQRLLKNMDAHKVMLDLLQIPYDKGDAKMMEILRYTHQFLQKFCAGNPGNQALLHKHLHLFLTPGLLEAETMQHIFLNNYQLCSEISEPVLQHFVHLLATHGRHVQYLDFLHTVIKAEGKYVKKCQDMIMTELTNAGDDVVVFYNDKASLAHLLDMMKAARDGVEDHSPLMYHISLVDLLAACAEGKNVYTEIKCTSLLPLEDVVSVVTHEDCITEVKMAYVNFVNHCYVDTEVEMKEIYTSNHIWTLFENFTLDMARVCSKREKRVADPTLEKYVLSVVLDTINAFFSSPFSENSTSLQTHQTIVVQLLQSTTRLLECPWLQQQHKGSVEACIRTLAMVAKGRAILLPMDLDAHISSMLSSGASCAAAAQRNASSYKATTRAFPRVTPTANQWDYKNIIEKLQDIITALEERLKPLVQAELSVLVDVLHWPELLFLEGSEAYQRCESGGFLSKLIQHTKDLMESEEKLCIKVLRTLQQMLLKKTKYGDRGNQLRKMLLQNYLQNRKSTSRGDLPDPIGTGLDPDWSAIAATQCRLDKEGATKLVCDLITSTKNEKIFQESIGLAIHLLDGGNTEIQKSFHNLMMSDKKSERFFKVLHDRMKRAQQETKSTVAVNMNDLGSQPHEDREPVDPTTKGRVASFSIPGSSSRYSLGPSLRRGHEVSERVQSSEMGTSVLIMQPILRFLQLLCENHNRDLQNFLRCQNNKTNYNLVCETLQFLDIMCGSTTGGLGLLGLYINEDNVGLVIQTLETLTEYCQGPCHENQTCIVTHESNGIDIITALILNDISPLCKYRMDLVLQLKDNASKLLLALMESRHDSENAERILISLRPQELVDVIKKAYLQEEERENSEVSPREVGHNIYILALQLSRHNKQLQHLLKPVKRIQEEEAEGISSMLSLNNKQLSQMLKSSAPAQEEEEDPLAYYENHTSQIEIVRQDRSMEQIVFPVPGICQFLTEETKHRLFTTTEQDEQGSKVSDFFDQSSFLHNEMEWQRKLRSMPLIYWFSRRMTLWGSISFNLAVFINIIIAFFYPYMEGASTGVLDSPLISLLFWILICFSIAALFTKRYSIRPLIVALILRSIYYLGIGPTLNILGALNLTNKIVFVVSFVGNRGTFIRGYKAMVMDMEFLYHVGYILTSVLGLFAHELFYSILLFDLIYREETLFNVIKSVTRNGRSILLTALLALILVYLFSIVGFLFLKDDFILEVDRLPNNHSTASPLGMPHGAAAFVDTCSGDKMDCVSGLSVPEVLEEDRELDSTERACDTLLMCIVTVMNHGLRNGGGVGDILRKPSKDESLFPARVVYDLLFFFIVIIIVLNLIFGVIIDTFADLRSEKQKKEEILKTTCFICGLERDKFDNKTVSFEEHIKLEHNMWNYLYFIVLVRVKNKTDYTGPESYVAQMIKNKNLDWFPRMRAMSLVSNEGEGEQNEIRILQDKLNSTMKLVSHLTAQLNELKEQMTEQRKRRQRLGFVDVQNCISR
UniProt Q13586, residues 23-685: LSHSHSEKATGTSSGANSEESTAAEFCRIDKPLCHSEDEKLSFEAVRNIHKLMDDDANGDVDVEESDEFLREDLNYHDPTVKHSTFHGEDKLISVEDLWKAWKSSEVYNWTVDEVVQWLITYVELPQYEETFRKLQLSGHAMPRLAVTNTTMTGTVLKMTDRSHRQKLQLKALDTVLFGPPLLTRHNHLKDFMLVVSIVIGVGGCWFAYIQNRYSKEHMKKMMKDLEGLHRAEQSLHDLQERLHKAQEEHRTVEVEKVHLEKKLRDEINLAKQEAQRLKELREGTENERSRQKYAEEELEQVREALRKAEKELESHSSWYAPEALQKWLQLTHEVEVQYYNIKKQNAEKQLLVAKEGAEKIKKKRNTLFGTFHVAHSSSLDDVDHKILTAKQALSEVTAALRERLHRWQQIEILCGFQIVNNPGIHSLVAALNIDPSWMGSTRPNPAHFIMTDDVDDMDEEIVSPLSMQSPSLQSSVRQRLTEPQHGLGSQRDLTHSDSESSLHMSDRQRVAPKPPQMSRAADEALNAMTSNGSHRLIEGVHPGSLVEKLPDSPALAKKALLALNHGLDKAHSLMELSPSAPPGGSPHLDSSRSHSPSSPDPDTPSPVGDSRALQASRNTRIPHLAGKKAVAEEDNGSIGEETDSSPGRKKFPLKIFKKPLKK
UniProt A1XBS5: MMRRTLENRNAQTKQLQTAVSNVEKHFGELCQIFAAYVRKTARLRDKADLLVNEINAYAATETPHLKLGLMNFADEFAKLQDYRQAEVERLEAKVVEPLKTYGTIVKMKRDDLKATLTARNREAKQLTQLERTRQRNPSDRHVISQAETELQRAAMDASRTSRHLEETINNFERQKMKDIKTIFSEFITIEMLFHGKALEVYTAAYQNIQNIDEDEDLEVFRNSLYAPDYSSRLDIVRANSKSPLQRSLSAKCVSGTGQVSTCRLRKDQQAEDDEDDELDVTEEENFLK

B1: TMEM38B (protein, UniProt Q9NVV0 1-291)
chain: MDSPWDELALAFSRTSMFPFFDIAHYLVSVMAVKRQPGAAALAWKNPISSWFTAMLHCFGGGILSCLLLAEPPLKFLANHTNILLASSIWYITFFCPHDLVSQGYSYLPVQLLASGMKEVTRTWKIVGGVTHANSYYKNGWIVMIAIGWARGAGGTIITNFERLVKGDWKPEGDEWLKMSYPAKVTLLGSVIFTFQHTQHLAISKHNLMFLYTIFIVATKITMMTTQTSTMTFAPFEDTLSWMLFGWQQPFSSCEKKSEAKSPSNGVGSLASKPVDVASDNVKKKHTKKNE
B2: ALG5 (protein, UniProt Q9Y673 1-324)
chain: MAPLLLQLAVLGAALAAAALVLISIVAFTTATKMPALHRHEEEKFFLNAKGQKETLPSIWDSPTKQLSVVVPSYNEEKRLPVMMDEALSYLEKRQKRDPAFTYEVIVVDDGSKDQTSKVAFKYCQKYGSDKVRVITLVKNRGKGGAIRMGIFSSRGEKILMADADGATKFPDVEKLEKGLNDLQPWPNQMAIACGSRAHLEKESIAQRSYFRTLLMYGFHFLVWFLCVKGIRDTQCGFKLFTREAASRTFSSLHVERWAFDVELLYIAQFFKIPIAEIAVNWTEIEGSKLVPFWSWLQMGKDLLFIRLRYLTGAWRLEQTRKMN
B3: NNT (protein, UniProt Q13423 44-1086)
chain: CKAPVKPGIPYKQLTVGVPKEIFQNEKRVALSPAGVQNLVKQGFNVVVESGAGEASKFSDDHYRVAGAQIQGAKEVLASDLVVKVRAPMVNPTLGVHEADLLKTSGTLISFIYPAQNPELLNKLSQRKTTVLAMDQVPRVTIAQGYDALSSMANIAGYKAVVLAANHFGRFFTGQITAAGKVPPAKILIVGGGVAGLASAGAAKSMGAIVRGFDTRAAALEQFKSLGAEPLEVDLKESGEGQGGYAKEMSKEFIEAEMKLFAQQCKEVDILISTALIPGKKAPVLFNKEMIESMKEGSVVVDLAAEAGGNFETTKPGELYIHKGITHIGYTDLPSRMATQASTLYSNNITKLLKAISPDKDNFYFDVKDDFDFGTMGHVIRGTVVMKDGKVIFPAPTPKNIPQGAPVKQKTVAELEAEKAATITPFRKTMSTASAYTAGLTGILGLGIAAPNLAFSQMVTTFGLAGIVGYHTVWGVTPALHSPLMSVTNAISGLTAVGGLALMGGHLYPSTTSQGLAALAAFISSVNIAGGFLVTQRMLDMFKRPTDPPEYNYLYLLPAGTFVGGYLAALYSGYNIEQIMYLGSGLCCVGALAGLSTQGTARLGNALGMIGVAGGLAATLGVLKPGPELLAQMSGAMALGGTIGLTIAKRIQISDLPQLVAAFHSLVGLAAVLTCIAEYIIEYPHFATDAAANLTKIVAYLGTYIGGVTFSGSLIAYGKLQGLLKSAPLLLPGRHLLNAGLLAASVGGIIPFMVDPSFTTGITCLGSVSALSAVMGVTLTAAIGGADMPVVITVLNSYSGWALCAEGFLLNNNLLTIVGALIGSSGAILSYIMCVAMNRSLANVILGGYGTTSTAGGKPMEISGTHTEINLDNAIDMIREANSIIITPGYGLCAAKAQYPIADLVKMLTEQGKKVRFGIHPVAGRMPGQLNVLLAEAGVPYDIVLEMDEINHDFPDTDLVLVIGANDTVNSAAQEDPNSIIAGMPVLEVWKSKQVIVMKRSLGVGYAAVDNPIFYKPNTAMLLGDAKKTCDALQAKVRESYQK
B4: LRRC49 (protein, UniProt Q8IUZ0 1-686)
chain: MIPGKYRSVSGRAANNVNCGLHLVIQTSSLPEKNKVEFKLNKDTSSFPGRLLQHDLERNYSSRQGDHINLVSSSLSSFPILQRSSEEKILYSDRLSLERQKLTVCPIINGEDHLRLLNFQHNFITRIQNISNLQKLISLDLYDNQIEEISGLSTLRCLRVLLLGKNRIKKISNLENLKSLDVLDLHGNQITKIENINHLCELRVLNLARNFLSHVDNLNGLDSLTELNLRHNQITFVRDVDNLPCLQHLFLSFNNISSFDSVSCLADSSSLSDITFDGNPIAQESWYKHTVLQNMMQLRQLDMKRITEEERRMASVLAKKEEEKKRESHKQSLLKEKKRLTINNVARQWDLQQQRVANIATNEDRKDSDSPQDPCQIDGSTLSAFPEETGPLDSGLNNALQGLSVIDTYLVEVDGDTLSLYGSGALESLDRNWSVQTAGMITTVSFTFIEFDEIVQVLPKLKIKFPNSLHLKFKETNLVMLQQFNALAQLRRIDQLTIDPQGNPVVNFTLWKYYVLFRLSHFSMQKINGTEVTQNDMIMAERLFGILAHVASSELPQYRLISILGDARKKQFRYLLESKGKKPGIINEENNDSKRLVGENTNRATLNYTTRDFYNEKLEEIKEKKKFCKTYIEDLVKEATEINMKNEALQKLWPQMFIELVRDAVIEIRNKNSYMKLCLQQITDQK
B5: TBL2 (protein, UniProt Q9Y4P3 1-447)
chain: MELSQMSELMGLSVLLGLLALMATAAVARGWLRAGEERSGRPACQKANGFPPDKSSGSKKQKQYQRIRKEKPQQHNFTHRLLAAALKSHSGNISCMDFSSNGKYLATCADDRTIRIWSTKDFLQREHRSMRANVELDHATLVRFSPDCRAFIVWLANGDTLRVFKMTKREDGGYTFTATPEDFPKKHKAPVIDIGIANTGKFIMTASSDTTVLIWSLKGQVLSTINTNQMNNTHAAVSPCGRFVASCGFTPDVKVWEVCFGKKGEFQEVVRAFELKGHSAAVHSFAFSNDSRRMASVSKDGTWKLWDTDVEYKKKQDPYLLKTGRFEEAAGAAPCRLALSPNAQVLALASGSSIHLYNTRRGEKEECFERVHGECIANLSFDITGRFLASCGDRAVRLFHNTPGHRAMVEEMQGHLKRASNESTRQRLQQQLTQAQETLKSLGALKK
B6: FNIP2 (protein, UniProt Q9P278 1-1114)
chain: MAPTLLQKLFNKRGSSGSSAAASAQGRAPKEGPAFSWSCSEFDLNEIRLIVYQDCDRRGRQVLFDSKAVQKIEEVTAQKTEDVPIKISAKCCQGSSSVSSSSSSSISSHSSSGGSSHHAKEQLPKYQYTRPASDVNMLGEMMFGSVAMSYKGSTLKIHYIRSPPQLMISKVFSARMGSFCGSTNNLQDSFEYINQDPNLGKLNTNQNSLGPCRTGSNLAHSTPVDMPSRGQNEDRDSGIARSASLSSLLITPFPSPSSSTSSSSSYQRRWLRSQTTSLENGIIPRRSTDETFSLAEETCSSNPAMVRRKKIAISIIFSLCEKEEAQRNFQDFFFSHFPLFESHMNRLKSAIEKAMISCRKIAESSLRVQFYVSRLMEALGEFRGTIWNLYSVPRIAEPVWLTMMSGTLEKNQLCQRFLKEFTLLIEQINKNQFFAALLTAVLTYHLAWVPTVMPVDHPPIKAFSEKRTSQSVNMLAKTHPYNPLWAQLGDLYGAIGSPVRLTRTVVVGKQKDLVQRILYVLTYFLRCSELQENQLTWSGNHGEGDQVLNGSKIITALEKGEVEESEYVVITVRNEPALVPPILPPTAAERHNPWPTGFPECPEGTDSRDLGLKPDKEANRRPEQGSEACSAGCLGPASDASWKPQNAFCGDEKNKEAPQDGSSRLPSCEVLGAGMKMDQQAVCELLKVEMPTRLPDRSVAWPCPDRHLREKPSLEKVTFQIGSFASPESDFESRMKKMEERVKACGPSLEASEAADVAQDPQVSRSPFKPGFQENVCCPQNRLSEGDEGESDKGFAEDRGSRNDMAADIAGQLSHAADLGTASHGAGGTGGRRLEATRGLYVKAAEGPVLEPVAPRCVQRGPGLVAGANIPCGDDNKKANFRTEGDIPRNESSDSALGDSDDEACASAMLDLGHGGDRTGGSLEVELPLPRSQSISTQNVRNFGRSLLAGYCPTYMPDLVLHGTGSDEKLKQCLVADLVHTVHHPVLDEPIAEAVCIIADTDKWSVQVATSQRKVTDNMKLGQDVLVSSQVSSLLQSILQLYKLHLPADFCIMHLEDRLQEMYLKSKMLSEYLRGHTRVHVKELGVVLGIESNDLPLLTAIASTHSPYVAQILL

Target: T1, full-length PC2 fused with FLAG-BirA* (PC2-BF / FB-PC2 BioID baits, datasets merged) (human) (UniProt Q13563)
T1 sequence: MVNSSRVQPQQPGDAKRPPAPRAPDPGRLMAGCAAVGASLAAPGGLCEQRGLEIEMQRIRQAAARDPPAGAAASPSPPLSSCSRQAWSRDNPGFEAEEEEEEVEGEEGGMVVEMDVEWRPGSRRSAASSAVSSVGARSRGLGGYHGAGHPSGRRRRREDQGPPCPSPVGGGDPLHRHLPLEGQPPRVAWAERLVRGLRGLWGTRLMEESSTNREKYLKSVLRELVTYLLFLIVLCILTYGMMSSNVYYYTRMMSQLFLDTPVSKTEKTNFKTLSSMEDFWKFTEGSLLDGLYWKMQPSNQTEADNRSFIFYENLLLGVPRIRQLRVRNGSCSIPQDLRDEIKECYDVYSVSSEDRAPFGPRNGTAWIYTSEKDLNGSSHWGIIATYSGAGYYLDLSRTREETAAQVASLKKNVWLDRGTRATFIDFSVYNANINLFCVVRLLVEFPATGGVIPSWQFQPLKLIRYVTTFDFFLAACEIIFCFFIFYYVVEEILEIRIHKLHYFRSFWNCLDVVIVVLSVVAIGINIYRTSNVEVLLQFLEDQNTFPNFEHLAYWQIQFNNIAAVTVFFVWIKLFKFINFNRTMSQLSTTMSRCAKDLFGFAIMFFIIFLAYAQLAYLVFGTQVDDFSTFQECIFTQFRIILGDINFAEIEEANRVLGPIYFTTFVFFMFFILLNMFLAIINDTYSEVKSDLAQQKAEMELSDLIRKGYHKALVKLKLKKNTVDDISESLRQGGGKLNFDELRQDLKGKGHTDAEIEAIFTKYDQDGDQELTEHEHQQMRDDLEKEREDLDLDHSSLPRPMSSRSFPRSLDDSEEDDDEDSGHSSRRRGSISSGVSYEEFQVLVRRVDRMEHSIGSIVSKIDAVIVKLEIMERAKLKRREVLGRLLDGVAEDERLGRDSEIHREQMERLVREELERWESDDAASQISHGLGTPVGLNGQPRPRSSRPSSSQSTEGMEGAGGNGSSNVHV
Experiment: proximity labelling; BioID in Flp-In HEK293 T-REx stable lines: bait induced with 1 ug/ml tetracycline and 50 uM biotin for 24 h, cycling cells or cells kept 48 h in 0.5% serum (ciliation-induced); streptavidin capture, LC-MS/MS; SAINTexpress, BFDR <=1% against FlagBirA* controls, PC1-BF also filtered against CD16.7-BF

Row | binding | Molecule
1 | binds | DNAJB11 (from UniProt Q9UBS4 23-358)
2 | binds | CBY1 (from UniProt Q9Y3M2 1-126)
3 | binds | EIF2KA3 (from UniProt Q9NZJ5 30-1116)
4 | binds | ITPR3 (from UniProt Q14573 1-2671)
5 | binds | STIM1 (from UniProt Q13586 23-685)
6 | binds | CIBAR1 (from UniProt A1XBS5)
7 | binds | B1
8 | binds | B2
9 | binds | B3
10 | binds | B4
11 | binds | B5
12 | no binding | B6
